# According to PubChem BioAssay AID651704 (Broad Institute, 2012):
# Amino acid sequences for entries named in this document (tags omitted).
# UniProt P42568, whole entry: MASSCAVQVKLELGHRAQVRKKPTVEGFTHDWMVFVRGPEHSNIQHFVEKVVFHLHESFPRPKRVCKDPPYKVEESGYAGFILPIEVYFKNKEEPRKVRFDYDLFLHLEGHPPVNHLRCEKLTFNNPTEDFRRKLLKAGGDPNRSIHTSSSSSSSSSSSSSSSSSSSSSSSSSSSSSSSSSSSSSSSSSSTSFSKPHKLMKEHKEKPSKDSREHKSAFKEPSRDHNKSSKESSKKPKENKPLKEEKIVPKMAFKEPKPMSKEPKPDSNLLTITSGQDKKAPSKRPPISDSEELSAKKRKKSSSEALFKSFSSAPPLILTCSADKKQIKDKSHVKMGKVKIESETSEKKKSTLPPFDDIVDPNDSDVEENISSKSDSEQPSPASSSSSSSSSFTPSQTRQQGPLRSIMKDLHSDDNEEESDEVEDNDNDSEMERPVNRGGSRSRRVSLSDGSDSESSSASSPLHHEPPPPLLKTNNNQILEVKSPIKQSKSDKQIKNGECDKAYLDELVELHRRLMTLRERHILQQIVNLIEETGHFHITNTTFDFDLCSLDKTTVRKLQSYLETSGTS
# Hit rate of the full screen: of about 350,000 compounds, about 1,600 (0.46%) were called active. These results got no clear call from the source, so the numbers are uncertain.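 The calls were made as follows: active = every replicate reaching a set inhibition limit, whatever the replicate mean (cut at about 25% in these data); inconclusive = mean inhibition reaches that limit but some replicates miss it; inactive = the rest.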
# Molecular target: Protein AF-9 (Homo sapiens) (UniProt P42568)
# Assay: inhibitors of AF4 peptide binding to AF9, primary screen, biochemical, AlphaScreen, biotin-AF4 peptide, FLAG-AF9, single point (AID 651704);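 also: 0% = plate neutral control median and 100% = total signal loss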
# Settings: at 10 µM, stronger effect = higher value
row,SMILES,inhibition
1,CCC(c1nnnn1C1CCCCC1)N1CCC(n2c(=O)[nH]c3ccccc32)CC1 (stereo unspecified),inconclusive: 24.6%
